# Results reported in PubChem BioAssay AID504444 (National Center for Advancing Translational Sciences (NCATS), 2011).
# Out of some 360,000 compounds screened, about 7,500 (2.1%) were called active. The shares of active, inactive and inconclusive entries below differ from those in the screen. Calls follow the shape of the dose curve; as a rule, active = well fitted inhibition curve with a large enough effect; inconclusive = small, poorly fitted or top-dose-only effect, or effect the other way; inactive = flat fitted curve, though single readings scatter. Potencies beside an inconclusive call are fits to weak or partial responses and may not hold up.
# Experiment: Nrf2 qHTS screen for inhibitors; also: nearly all actives have a fitted effect of over 60% in size
# Conditions: A549 ARE-Fluc reporter, luciferase luminescence, 18-24 h; activity change, negative = inhibition: at 46 µM (top of the series)
# Procedure, shortened: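 A549 ARE_Fluc cells (5000/well, 5% FBS OPTI-MEM) pre-incubated 2 h, then treated with compounds 18-24 h at 37C/5% CO2 in concentration-response. CellTiter-Fluor viability read first; BugLite luciferase luminescence after 15 min at room temperature gives Nrf2 activity.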
# % is scaled to controls: 0 for no effect and ±100 for the full control effect; potency is read from the fitted curve at half-maximal effect.
SMILES,Potency,"activity change, negative = inhibition"
CCCCSc1ncc(C(=O)OCC)c(N)n1,"inconclusive: 2.59 µM [activator, full curve]",
Cc1cc(SCC#N)n2nc(C)c(-c3ccccc3)c2n1,"inconclusive: 20.6 µM [falling, single point]",
COc1ccc(OC)c(C2=Nn3c(nnc3-c3cccc(OC(C)C)c3)SC2)c1,"inconclusive: 5.17 µM [falling, single point]",
CC1CCc2nc(NC(=O)C3COc4ccccc4O3)sc2C1 (configuration not stated),"inconclusive: 0.366 µM [activator, full curve, poor fit]",
CS(=O)(=O)N1CCN(Cc2ccc(C(F)(F)F)cc2)CC1,"inconclusive: 7.31 µM [falling, partial curve, poor fit]",
Cc1cccc(NC(=O)CSc2nc3ccccc3c(=O)n2CC2CCCO2)c1 (configuration not stated),"inconclusive: 16.4 µM [falling, single point]",
O=C(COc1ccccc1[N+](=O)[O-])Nc1ccc(Br)cc1,"inconclusive: 29.1 µM [activator, single point]",
O=C(c1cc(N2C(=O)C3C4CCC(C4)C3C2=O)ccc1Cl)N1CCN(c2ccccc2)CC1 (configuration not stated),"inconclusive: 20.6 µM [falling, single point]",
O=C(Nc1cccnc1)c1ccc(COCC(F)(F)F)cc1,"inconclusive: 18.4 µM [falling, single point]",
Cc1nc(CNS(=O)(=O)c2ccc3c(c2)CCCC3)cs1,"inconclusive: 13 µM [falling, partial curve, poor fit]",
COC(=O)c1ccccc1NC(=O)CCCn1c(C)c2cnn(-c3ccccc3)c(=O)c2c1C,,inactive: 15.4%
C/C(=N\Nc1nncc2ccccc12)c1ccc(C(C)(C)C)cc1,"inconclusive: 14.6 µM [activator, partial curve]",
Cc1nnc(SC(=O)N2c3ccccc3Sc3ccccc32)s1,active: 13 µM,
COc1cccc(C(=O)NC2CC(C)(C)Cc3c2cnn3-c2cccc(F)c2)c1OC (configuration not stated),,inactive: -4.63%
Cc1ccccc1Cn1c(SCc2ccc(C(=O)N3CCCCC3)cc2)nc2ccncc21,"inconclusive: 9.2 µM [falling, partial curve]",
c1ccc(OCc2nnc(-c3ccccc3)o2)cc1,"inconclusive: 9.2 µM [activator, partial curve]",
Cc1sc2ncnc(N3CCN(C(=O)c4ccco4)CC3)c2c1C,"inconclusive: 18.4 µM [falling, single point]",
O=C(N/N=C/c1cc([N+](=O)[O-])ccc1O)c1ccc2c(c1)OCCO2,"inconclusive: 29.1 µM [falling, single point]",
O=C(O)CC1=C(Nc2ccccc2)C(=O)N(c2ccccc2)C1c1ccc(F)cc1 (configuration not stated),"inconclusive: 4.11 µM [activator, full curve, poor fit]",
CCCOc1ccc(OC(=O)c2ccc(-c3ccc(CCC)cn3)cc2)cc1,"inconclusive: 0.517 µM [activator, full curve, poor fit]",
C=CCS/C(=N\n1cnc2ccccc2c1=O)N1CCCCC1,"inconclusive: 0.326 µM [activator, full curve, poor fit]",

# Part of the list above in a different format:
SMILES | Potency | activity change, negative = inhibition
CC1CCc2nc(NC(=O)C3COc4ccccc4O3)sc2C1 (configuration not stated) | inconclusive: 0.366 µM [activator, full curve, poor fit] | 
CS(=O)(=O)N1CCN(Cc2ccc(C(F)(F)F)cc2)CC1 | inconclusive: 7.31 µM [falling, partial curve, poor fit] | 
Cc1cccc(NC(=O)CSc2nc3ccccc3c(=O)n2CC2CCCO2)c1 (configuration not stated) | inconclusive: 16.4 µM [falling, single point] | 

# Next compounds follow:

SMILES,Potency,"activity change, negative = inhibition"
N#CC(C#N)=NNc1ccc(S(=O)(=O)N2CCCCC2)cc1,,inactive: -20.7%
COc1ccccc1N1CCN(S(=O)(=O)c2cccs2)CC1,"inconclusive: 4.61 µM [falling, full curve, poor fit]",
CNC(=O)NC(=O)COC(=O)CCCSc1nc2ccccc2s1,"inconclusive: 20.6 µM [falling, partial curve]",
CCn1c(C(=O)Nc2ccccc2C(=O)OC)cc2sc(Cl)cc21,,inactive: 5.01%
Cc1cc2ncn(S(=O)(=O)c3ccc(S(=O)(=O)N4CCCCCC4)cc3)c2cc1C,"inconclusive: 14.6 µM [falling, partial curve, poor fit]",
CNc1ncnc2c1cnn2C1CCCCO1 (configuration not stated),"inconclusive: 20.6 µM [activator, single point]",
NC(=O)c1ccccc1NC(=O)c1ccccc1Cl,,inactive: 9.47%
C[C@@]12C(=O)Nc3cc(Cl)ccc3C(=O)N1[C@H]1c3cc(Br)ccc3OC[C@@H]1[C@@H]2c1ccccc1,"inconclusive: 16.4 µM [falling, single point]",
COc1ccccc1CNC(=O)c1cccc(S(=O)(=O)N(C)c2ccccc2)c1,"inconclusive: 18.4 µM [falling, partial curve, poor fit]",
O=C(CSc1ccc2ccccc2n1)N1CCC(c2noc3ccc(F)cc23)CC1,"inconclusive: 2.31 µM [falling, full curve, poor fit]",
COc1ccc(-c2nc3c(n2O)CCc2c-3no[n+]2[O-])cc1,"inconclusive: 20.6 µM [activator, partial curve, poor fit]",
O=[N+]([O-])c1ccc2c(c1)C(O)n1nc(-c3ccc(Cl)cc3Cl)nc1S2 (configuration not stated),"inconclusive: 29.1 µM [activator, single point]",
COC(=O)C1=C[C@@H](C(=O)OC)[C@@H]2C3=C(C(=O)[C@@]2(C)NC(=O)c2ccccc2)[C@H](C)[C@@H]2C(=O)N(c4ccccc4)C(=O)[C@@H]2[C@@H]3C1,,inactive: 16.8%
O=C(Cc1ccc(NC(=O)N2CCCCc3ccccc32)cc1)NCc1cccc(Br)c1,,inactive: -24.4%
Cc1noc(C)c1CSCC(=O)N(C)CC(=O)Nc1ccccc1Cl,"inconclusive: 0.13 µM [falling, full curve, poor fit]",
CCCCCCOc1ccc(C(=O)O)cc1C#N,,inactive: -3.38%
Cc1ccc2c(c1)sc(=NC(=O)C1CC1)n2C,"inconclusive: 29.1 µM [activator, single point]",
Cc1cccc(Nc2nnc(SCc3cn4ccsc4n3)s2)c1,"inconclusive: 29.1 µM [falling, single point]",
O=C(Nc1ccc(CCC(=O)N2CCCC2)cc1)c1ncn[nH]1,,inactive: 12.4%
O=C(c1ccc(Sc2cccc(Cl)c2)c([N+](=O)[O-])c1)N1CCN(c2ccccn2)CC1,active: 16.4 µM,
CCOc1ccc(C(=O)Nc2nnc(SCC(=O)NCC3CCCO3)s2)cc1 (configuration not stated),"inconclusive: 13 µM [falling, single point]",
